The assay is described as follows: qHTS Assay for Lipid Storage Modulators in Drosophila S3 Cells.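 For cell number change: cells counted by Cell Tracker Red CMTPX staining in the red channel.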 Conditions: BODIPY lipid droplet fluorescence, 18-24 h; for cell number change: measured here: cell count max response, cells fed with added oleic acid. The method in brief:
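Drosophila S3 cells got compounds at several concentrations plus oleic acid (400 uM solution). Laser-scanning cytometry with 488 nm excitation read lipid droplets at 500-530 nm and cells at 575-640 nm. Percent activity was relative to 20 uM Triacsin C.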
A general note: In qHTS, concentration-response curves come from the screen itself.

Where [1] appears, read: measured here: lipid fluorescence (Fed channel) AC50, cells fed with added oleic acid.
[2] abbreviates: measured here: cell number channel AC50, cells fed with added oleic acid.

SMILES strings stand for the structures. Some of the results follow. The main result of the screen is listed elsewhere. These columns were measured beside it and carry no call. Most of these compounds were active or inconclusive in the main read-out, so they are no random draw. Potencies come from curve fits of mixed quality, noted in brackets.

For `C/C(CC(=O)NCc1ccc(Cl)cc1)=N\NC(=O)Cc1ccccc1`, the cell number change stood at 25.2%. Besides, the half-maximal activity concentration (AC50) under setting [1] was 13 µM [rising, partial curve, poor fit].
As for `CCc1ccc(C(=O)/C=C2\Sc3ccccc3NC2=O)cc1`, the cell number change was -4.75%. Besides, the AC50 under setting [1] is 5.17 µM [rising, partial curve].
`COc1cc(/C=N/NC(=O)C(Cc2c[nH]c3ccccc23)NC(=O)OCC(C)C)cc([N+](=O)[O-])c1OCc1ccccc1` (centres undefined): the cell number change was -0.241%. Further, under setting [1], the concentration at half-maximal activity (AC50) is 0.00411 µM [rising, full curve, poor fit].
`O=C1Nc2ccccc2O/C1=C\c1c(F)cccc1Cl`: the cell number change is 38.7%. For the same compound, the AC50 under setting [2] is 0.291 µM [rising, full curve].
On to `Nc1c(C(=O)CSc2nnc(N3CCOCC3)n2-c2cccc(F)c2)c(=O)[nH]c(=O)n1C1CC1`, for which the cell number change turned out to be 32.2%. In addition, under setting [2], the concentration at half-maximal activity (AC50) is 0.92 µM [falling, full curve].
In the case of `COc1ccc(C(C)=O)cc1COC(=O)c1ccc(C)c(S(=O)(=O)N2CCOCC2)c1`, the cell number change is -21.2%. Also, under setting [1], the half-maximal activity concentration (AC50) was 8.2 µM [falling, partial curve, poor fit].
Regarding `O=C(OCn1nnc2ccccc2c1=O)c1cccnc1Cl`, under setting [1], the AC50 was 29.1 µM [falling, single point].
Take `O=C1CSC(=Nc2ccc(Cl)cc2)N1`: the cell number change came out at 1.1%. Besides, under setting [2], the half-maximal activity concentration (AC50) was 6.51 µM [falling, single point]. Moreover, the AC50 under setting [1] is 6.51 µM [falling, single point].
Take `CCc1nnc(N2C(=O)c3ccccc3C2(O)c2ccccc2)s1` (centres undefined): the cell number change came out at 4.24%. Moreover, the concentration at half-maximal activity (AC50) under setting [2] is 0.146 µM [falling, full curve, poor fit]. For the same compound, the concentration at half-maximal activity (AC50) under setting [1] is 0.116 µM [falling, full curve, poor fit].
On to `CC(=O)Nc1ccc(-c2csc(NCc3ccccc3)n2)cc1`, for which the cell number change was -17.4%. In addition, under setting [2], the AC50 is 2.31 µM [falling, single point]. Besides, the half-maximal activity concentration (AC50) under setting [1] is 2.31 µM [falling, single point].
With `COc1cc(C(=O)NC(C)C2CC3CCC2C3)cc(OC)c1OC` (centres undefined), the cell number change was -22.6%.
The same measure, in the same setting: as for `N#CCN1CCN(CC(=O)c2ccc(Br)cc2)CC1`, the figure is 9.3%.
As for `O=C(c1ccccc1)N1CCN(C(=O)c2cc3ccccc3o2)CC1`, the cell number change turned out to be 26.5%. Besides, the concentration at half-maximal activity (AC50) under setting [2] is 2.31 µM [rising, full curve, poor fit]. The half-maximal activity concentration (AC50) under setting [1] was 29.1 µM [rising, single point].
Take `Cc1ccc(C(=O)Nc2ccc(C(=O)/C=C/c3cccs3)cc2)cc1`: the cell number change is -15.4%. For the same compound, under setting [1], the half-maximal activity concentration (AC50) was 18.4 µM [falling, single point].
As for `COc1ccc(/C=N/N2CCN(C3c4ccccc4-c4ccccc43)CC2)cc1O`, the cell number change is 4.4%.
For the compound `O=C(CCc1ccccc1)NC(=S)Nc1cccc(Br)c1`, the cell number change stood at 3.69%. The half-maximal activity concentration (AC50) under setting [1] was 29.1 µM [rising, single point].
On to `O=C(CSc1nnc(NC(=O)c2ccccc2[N+](=O)[O-])s1)NCc1ccco1`, for which the AC50 under setting [1] is 0.116 µM [rising, full curve, poor fit].
For the compound `COc1ccccc1CNC(=O)C1Cc2cc(S(=O)(=O)N3CCCCC3)ccc2N1C(C)=O` (centres undefined), the cell number change was -27.8%. The half-maximal activity concentration (AC50) under setting [2] was 0.0517 µM [falling, full curve, poor fit].
`C=CCn1c(SCC(N)=O)nc2scc(-c3ccc(C)o3)c2c1=O`: the cell number change stood at 13.4%. For the same compound, under setting [1], the concentration at half-maximal activity (AC50) is 0.651 µM [rising, full curve, poor fit].
For `COc1ccc(OC)c(Nc2nc(-c3sc(NC(=O)c4ccccc4)nc3C)cs2)c1`, the cell number change was -12%.
In the case of `COc1ccc(NC(=O)CCCC(=O)c2ccccc2)c(OC)c1`, the cell number change was -57.8%. For the same compound, under setting [2], the half-maximal activity concentration (AC50) is 23.1 µM [falling, single point]. Also, the AC50 under setting [1] is 20.6 µM [falling, single point].
`O=C(c1ccccc1Cl)N1CCC(N2CCC(C(=O)N3CCCC3)CC2)CC1`: the cell number change was 15.3%. Also, the AC50 under setting [1] was 7.31 µM [rising, partial curve].
As for `COc1ccc(C(CNC(=O)c2ccc(Cl)c(S(=O)(=O)N3CCCC3)c2)N2CCCC2)cc1` (centres undefined), the cell number change came out at 20.3%. Besides, the AC50 under setting [2] is 0.517 µM [falling, single point]. Further, the AC50 under setting [1] is 0.461 µM [falling, full curve, poor fit].
With `O=C(NCc1cccs1)c1cc(-c2cccs2)on1`, the cell number change is 10.3%.
On to `Nc1c(C(=O)Nc2ccc(F)cc2)sc2nc(-c3ccco3)ccc12`, for which the cell number change was -33.9%. For the same compound, the AC50 under setting [2] was 7.31 µM [falling, partial curve].
On to `COc1ccc(C(=O)NCC23C=CC(O2)C2C(=O)N(Cc4ccccc4)C(=O)C23)cc1` (centres undefined), for which the cell number change was -15.5%.
Still for that read-out and setting: as for `CC(C)(C)OC(=O)NCC(=O)N1CCC(C(=O)O)CC1`, the figure is -2.58%.
Regarding `N#C/C(=C/c1ccc(CNS(=O)(=O)c2ccccc2)o1)C(=O)NCc1ccccc1`, the cell number change was -13%. Further, the AC50 under setting [1] is 2.59 µM [rising, single point].
For the compound `CC1=C(C(=O)Nc2ccccc2C)C(c2ccc(C)o2)n2c(s/c(=C/c3ccccc3)c2=O)=N1` (centres undefined), the cell number change is 4.42%. For the same compound, under setting [2], the AC50 is 0.731 µM [rising, full curve]. Moreover, under setting [1], the AC50 is 2.31 µM [rising, partial curve].
As for `CN(C(=O)CCc1nnc(CCCCc2ccccc2)o1)C1CCOCC1`, the cell number change was determined as 4.71%. Further, under setting [1], the AC50 is 16.4 µM [rising, single point].
Turning to `O=C(NCc1ccc2c(c1)OCO2)C1CC(=O)N(C2CCCCCC2)C1` (centres undefined), the cell number change is -11.4%. Also, under setting [1], the AC50 was 2.91 µM [rising, full curve, poor fit].
Take `Cc1cc(Cl)ccc1OC(C)C(=O)N1CCCN(C(=O)C(C)Oc2ccc(Cl)cc2C)CC1` (centres undefined): the cell number change is -27.7%. For the same compound, the AC50 under setting [1] is 11.6 µM [falling, single point].
For the compound `S=C(NCc1ccco1)N/N=C/c1ccc(Cl)cc1`, the cell number change was -40.7%. The AC50 under setting [2] was 32.6 µM [falling, single point]. The AC50 under setting [1] was 29.1 µM [falling, single point].
With `N#CCN=C(c1ccccc1)c1ccccc1`, the cell number change was found to be 4.21%. The AC50 under setting [1] was 1.16 µM [rising, partial curve].
Consider `COc1ccccc1C(CNC(=O)c1ccc(-c2ccccc2Cl)o1)N1CCCC1` (centres undefined), for which the cell number change came to 30%. In addition, the concentration at half-maximal activity (AC50) under setting [2] was 0.0731 µM [rising, full curve, poor fit]. The AC50 under setting [1] was 0.146 µM [rising, full curve, poor fit].
Turning to `COc1ccc2[nH]c(C(=O)N3CCC(CO)(Cc4cccc(C(F)(F)F)c4)CC3)c(C)c2c1`, the cell number change was -33.4%. The AC50 under setting [2] was 29.1 µM [falling, single point].
As for `O=S(=O)(c1ccc(OCC(O)CN2CCCC2)cc1)N1CCOCC1` (centres undefined), the cell number change is -2.13%. Under setting [1], the concentration at half-maximal activity (AC50) is 2.31 µM [falling, partial curve].
In the case of `COc1ccc(OC)c(NC(=O)c2cc3ccccc3o2)c1`, the cell number change was 2.99%. Further, under setting [1], the AC50 is 0.461 µM [rising, partial curve].
As to `Cc1cccc(NC(=O)NNC(=O)c2cc3ccccc3cc2O)c1C`, the cell number change was determined as 12%. The half-maximal activity concentration (AC50) under setting [1] was 2.31 µM [rising, full curve, poor fit].
In the case of `O=S(=O)(c1cccc2ccccc12)n1nnc2ccccc21`, the cell number change is -49.1%.
Turning to `O=C(CN1CCC(C(=O)c2ccc(Cl)cc2)CC1)NC1CCCC1`, the cell number change is 11.5%.
Take `O=C(NCC1CC1(Cl)Cl)Nc1ccc(Cl)c(Cl)c1` (centres undefined): the cell number change is 17.6%. Moreover, under setting [1], the AC50 was 6.51 µM [falling, single point].
Consider `N/C(Cc1ccccc1)=N\OC(=O)c1cccc2ccccc12`, for which the cell number change turned out to be 1.84%. Further, under setting [2], the AC50 was 0.651 µM [falling, single point].
As to `COc1cccc(NC(=O)CN(C)C(=O)c2ccc(NC(=O)CC3SC(N4CCCCC4)=NC3=O)cc2)c1` (centres undefined), the cell number change was found to be 3.95%. Also, the AC50 under setting [1] is 7.31 µM [rising, partial curve].
As for `O=C(Nc1ccccc1N1CCCCC1)c1ncoc1-c1cccc(F)c1`, the cell number change is -6.23%. Further, under setting [1], the AC50 is 14.6 µM [rising, single point].
On to `Cc1ccc(NC(=S)N=Nc2c(O)[nH]c3ccccc23)cc1`, for which the cell number change worked out at 18.5%. Under setting [1], the half-maximal activity concentration (AC50) is 0.206 µM [rising, full curve].
Regarding `COc1ccc(NC(=O)C(CCS(C)(=O)=O)NC(C)=O)cc1` (centres undefined), the cell number change was -4.9%. Moreover, the AC50 under setting [2] is 0.00517 µM [rising, full curve, poor fit]. Moreover, the AC50 under setting [1] is 0.00411 µM [rising, full curve, poor fit].
For `COC(=O)c1cc(NCc2ccccc2F)ccc1N1CCOCC1`, the cell number change was determined as 95.4%. In addition, under setting [2], the concentration at half-maximal activity (AC50) is 18.4 µM [rising, single point]. Also, the AC50 under setting [1] is 1.64 µM [rising, full curve, poor fit].
Regarding `COCCOc1cc(N(CC(=O)N(C)C)S(=O)(=O)c2ccccc2)c(Cl)cc1Cl`, the cell number change worked out at 27.5%. Besides, the AC50 under setting [1] is 0.00461 µM [rising, full curve, poor fit].
As for `Cc1nc(-c2ccccn2)sc1C(=O)O`, the cell number change is -8.06%. Moreover, the concentration at half-maximal activity (AC50) under setting [1] was 6.51 µM [falling, single point].
As for `COc1ccccc1C(=O)N1CCN(C(=O)Cc2ccccc2)CC1`, the cell number change turned out to be 27.4%. Moreover, the AC50 under setting [1] is 6.51 µM [falling, single point].
In the case of `CCN(CC)C(=O)Oc1ccc(OC(=O)N(CC)CC)cc1`, the cell number change was -5.41%. In addition, under setting [1], the AC50 was 6.51 µM [falling, partial curve, poor fit].
Take `CC(C)(C)c1ccc(NC(=O)N2CCN(c3ccc([N+](=O)[O-])cn3)CC2)cc1`: the cell number change is -37.5%. Besides, under setting [2], the concentration at half-maximal activity (AC50) is 32.6 µM [falling, single point]. The AC50 under setting [1] was 32.6 µM [falling, single point].
`Cc1ccccc1S(=O)(=O)Cc1ccc(C(=O)NCCN(C)Cc2ccccc2)o1`: the cell number change was found to be 30.8%. The AC50 under setting [2] is 1.84 µM [rising, partial curve]. For the same compound, the concentration at half-maximal activity (AC50) under setting [1] was 0.116 µM [falling, full curve, poor fit].
For the compound `CCNC(=O)COC(=O)c1cc(S(=O)(=O)N2CCCCC2)ccc1C`, the cell number change turned out to be 14.1%. For the same compound, under setting [1], the concentration at half-maximal activity (AC50) was 32.6 µM [rising, single point].
Regarding `Cc1occc1C(=O)NNC1=CC(=O)CC(C)(C)C1`, the cell number change was -40.6%. Moreover, the AC50 under setting [2] was 0.58 µM [falling, full curve]. The AC50 under setting [1] is 29.1 µM [falling, single point].
`CC1CCN(c2nc(-c3ccccc3)cc(C(F)(F)F)n2)CC1`: the cell number change is 167%. In addition, the AC50 under setting [2] is 29.1 µM [rising, partial curve]. Under setting [1], the AC50 is 20.6 µM [rising, single point].
`CCOC(=O)C1CCN(S(=O)(=O)Cc2ccccc2)CC1`: the cell number change came to 1.28%.

In general, AC50 refers to the concentration at which the activity in the assay is half-maximal.

(Values after PubChem BioAssay AID2685 (National Center for Advancing Translational Sciences (NCATS), 2010).)
